In paper PMC3837162:
Results are given in words; binding and its absence hold for the method and conditions named. Binding seen in cells or lysates may run through a third protein. These calls come from enrichment with a bait or labelling near it, and not all partners need be listed.

Amino acid sequences for entries named in this document (tags omitted).
UniProt P84095: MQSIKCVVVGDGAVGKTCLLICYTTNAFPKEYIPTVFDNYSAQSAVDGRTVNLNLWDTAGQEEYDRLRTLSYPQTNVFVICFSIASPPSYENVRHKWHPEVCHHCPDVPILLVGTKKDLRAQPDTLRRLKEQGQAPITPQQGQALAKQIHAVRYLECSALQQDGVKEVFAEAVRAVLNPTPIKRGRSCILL
UniProt Q15058: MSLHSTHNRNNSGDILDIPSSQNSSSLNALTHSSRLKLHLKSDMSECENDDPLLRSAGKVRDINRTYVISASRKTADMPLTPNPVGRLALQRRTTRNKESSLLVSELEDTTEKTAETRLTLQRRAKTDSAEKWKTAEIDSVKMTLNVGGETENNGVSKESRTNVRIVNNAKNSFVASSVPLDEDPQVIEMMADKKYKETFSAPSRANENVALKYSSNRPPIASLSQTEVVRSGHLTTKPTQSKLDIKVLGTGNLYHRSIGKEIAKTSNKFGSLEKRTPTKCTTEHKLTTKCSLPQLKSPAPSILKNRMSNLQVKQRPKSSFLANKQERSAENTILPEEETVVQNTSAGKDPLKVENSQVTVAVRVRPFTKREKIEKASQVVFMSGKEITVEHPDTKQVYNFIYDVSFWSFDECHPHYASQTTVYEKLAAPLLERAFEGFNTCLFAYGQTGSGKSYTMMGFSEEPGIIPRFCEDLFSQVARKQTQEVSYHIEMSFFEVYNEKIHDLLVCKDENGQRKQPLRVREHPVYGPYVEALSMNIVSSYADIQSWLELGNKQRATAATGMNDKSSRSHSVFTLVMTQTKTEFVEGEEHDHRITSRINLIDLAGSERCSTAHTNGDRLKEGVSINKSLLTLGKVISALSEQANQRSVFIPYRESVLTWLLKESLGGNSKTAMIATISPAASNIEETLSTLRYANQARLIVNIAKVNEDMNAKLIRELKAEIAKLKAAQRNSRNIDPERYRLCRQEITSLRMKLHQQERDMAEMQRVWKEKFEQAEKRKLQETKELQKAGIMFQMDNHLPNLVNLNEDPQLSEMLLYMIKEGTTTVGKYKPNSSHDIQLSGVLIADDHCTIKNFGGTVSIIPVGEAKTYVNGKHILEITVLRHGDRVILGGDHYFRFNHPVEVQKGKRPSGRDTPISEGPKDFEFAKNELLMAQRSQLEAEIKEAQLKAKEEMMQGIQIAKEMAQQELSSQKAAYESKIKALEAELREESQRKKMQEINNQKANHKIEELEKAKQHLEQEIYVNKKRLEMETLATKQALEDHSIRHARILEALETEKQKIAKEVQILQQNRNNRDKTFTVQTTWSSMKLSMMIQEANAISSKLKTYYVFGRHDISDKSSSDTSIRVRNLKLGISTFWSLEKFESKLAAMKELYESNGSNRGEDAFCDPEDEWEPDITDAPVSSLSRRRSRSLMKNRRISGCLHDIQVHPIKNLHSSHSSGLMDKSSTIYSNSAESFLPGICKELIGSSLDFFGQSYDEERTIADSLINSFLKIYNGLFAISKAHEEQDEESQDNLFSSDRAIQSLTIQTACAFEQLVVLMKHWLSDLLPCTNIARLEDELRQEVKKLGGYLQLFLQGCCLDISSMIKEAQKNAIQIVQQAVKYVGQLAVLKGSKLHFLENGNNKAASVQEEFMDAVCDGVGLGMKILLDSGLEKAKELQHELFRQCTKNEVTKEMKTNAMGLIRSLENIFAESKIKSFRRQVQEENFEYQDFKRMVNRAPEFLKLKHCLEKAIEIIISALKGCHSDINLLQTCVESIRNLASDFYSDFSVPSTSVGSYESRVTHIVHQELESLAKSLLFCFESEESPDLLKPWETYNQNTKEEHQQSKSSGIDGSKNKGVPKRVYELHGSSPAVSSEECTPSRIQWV
UniProt Q92845: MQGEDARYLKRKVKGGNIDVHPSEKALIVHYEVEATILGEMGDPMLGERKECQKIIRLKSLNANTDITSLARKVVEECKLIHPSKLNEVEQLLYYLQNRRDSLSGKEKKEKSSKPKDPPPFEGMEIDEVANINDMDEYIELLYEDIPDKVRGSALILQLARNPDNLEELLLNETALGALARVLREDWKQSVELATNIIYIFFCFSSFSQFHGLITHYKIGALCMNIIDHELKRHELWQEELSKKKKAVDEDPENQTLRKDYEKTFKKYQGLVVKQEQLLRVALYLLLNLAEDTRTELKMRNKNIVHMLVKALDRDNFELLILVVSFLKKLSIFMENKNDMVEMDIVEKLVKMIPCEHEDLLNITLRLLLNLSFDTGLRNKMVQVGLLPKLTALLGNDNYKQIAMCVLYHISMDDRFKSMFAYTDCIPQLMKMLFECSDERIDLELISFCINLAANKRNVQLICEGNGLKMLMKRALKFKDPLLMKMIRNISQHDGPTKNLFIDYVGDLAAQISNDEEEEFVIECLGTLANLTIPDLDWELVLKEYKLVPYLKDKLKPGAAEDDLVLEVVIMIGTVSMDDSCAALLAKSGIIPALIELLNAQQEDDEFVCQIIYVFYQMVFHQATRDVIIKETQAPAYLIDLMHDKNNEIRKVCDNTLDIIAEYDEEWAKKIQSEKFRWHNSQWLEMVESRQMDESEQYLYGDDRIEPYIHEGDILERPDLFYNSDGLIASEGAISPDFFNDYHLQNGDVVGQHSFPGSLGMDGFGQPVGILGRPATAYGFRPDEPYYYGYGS
UniProt Q86TV6: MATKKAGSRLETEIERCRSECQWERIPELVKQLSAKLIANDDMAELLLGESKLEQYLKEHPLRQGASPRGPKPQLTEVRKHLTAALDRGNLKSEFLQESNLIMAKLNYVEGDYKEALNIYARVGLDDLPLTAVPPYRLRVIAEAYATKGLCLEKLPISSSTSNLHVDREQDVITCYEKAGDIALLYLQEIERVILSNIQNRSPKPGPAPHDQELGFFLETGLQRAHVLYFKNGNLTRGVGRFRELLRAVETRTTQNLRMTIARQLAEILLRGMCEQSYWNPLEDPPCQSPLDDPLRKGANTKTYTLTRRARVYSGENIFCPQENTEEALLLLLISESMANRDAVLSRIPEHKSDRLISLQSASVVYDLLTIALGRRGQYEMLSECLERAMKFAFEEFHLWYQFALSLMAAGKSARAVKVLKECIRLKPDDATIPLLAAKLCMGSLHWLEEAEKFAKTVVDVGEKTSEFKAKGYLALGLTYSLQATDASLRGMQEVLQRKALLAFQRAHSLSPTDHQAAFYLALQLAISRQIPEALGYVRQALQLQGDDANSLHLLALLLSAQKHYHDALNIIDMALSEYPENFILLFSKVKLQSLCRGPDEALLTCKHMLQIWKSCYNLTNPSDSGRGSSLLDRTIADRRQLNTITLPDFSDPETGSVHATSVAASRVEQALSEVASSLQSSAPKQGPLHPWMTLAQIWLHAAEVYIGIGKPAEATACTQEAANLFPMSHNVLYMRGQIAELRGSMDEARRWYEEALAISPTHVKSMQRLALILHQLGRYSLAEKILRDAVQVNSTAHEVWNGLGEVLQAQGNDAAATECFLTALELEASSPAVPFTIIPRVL
UniProt Q96BY6: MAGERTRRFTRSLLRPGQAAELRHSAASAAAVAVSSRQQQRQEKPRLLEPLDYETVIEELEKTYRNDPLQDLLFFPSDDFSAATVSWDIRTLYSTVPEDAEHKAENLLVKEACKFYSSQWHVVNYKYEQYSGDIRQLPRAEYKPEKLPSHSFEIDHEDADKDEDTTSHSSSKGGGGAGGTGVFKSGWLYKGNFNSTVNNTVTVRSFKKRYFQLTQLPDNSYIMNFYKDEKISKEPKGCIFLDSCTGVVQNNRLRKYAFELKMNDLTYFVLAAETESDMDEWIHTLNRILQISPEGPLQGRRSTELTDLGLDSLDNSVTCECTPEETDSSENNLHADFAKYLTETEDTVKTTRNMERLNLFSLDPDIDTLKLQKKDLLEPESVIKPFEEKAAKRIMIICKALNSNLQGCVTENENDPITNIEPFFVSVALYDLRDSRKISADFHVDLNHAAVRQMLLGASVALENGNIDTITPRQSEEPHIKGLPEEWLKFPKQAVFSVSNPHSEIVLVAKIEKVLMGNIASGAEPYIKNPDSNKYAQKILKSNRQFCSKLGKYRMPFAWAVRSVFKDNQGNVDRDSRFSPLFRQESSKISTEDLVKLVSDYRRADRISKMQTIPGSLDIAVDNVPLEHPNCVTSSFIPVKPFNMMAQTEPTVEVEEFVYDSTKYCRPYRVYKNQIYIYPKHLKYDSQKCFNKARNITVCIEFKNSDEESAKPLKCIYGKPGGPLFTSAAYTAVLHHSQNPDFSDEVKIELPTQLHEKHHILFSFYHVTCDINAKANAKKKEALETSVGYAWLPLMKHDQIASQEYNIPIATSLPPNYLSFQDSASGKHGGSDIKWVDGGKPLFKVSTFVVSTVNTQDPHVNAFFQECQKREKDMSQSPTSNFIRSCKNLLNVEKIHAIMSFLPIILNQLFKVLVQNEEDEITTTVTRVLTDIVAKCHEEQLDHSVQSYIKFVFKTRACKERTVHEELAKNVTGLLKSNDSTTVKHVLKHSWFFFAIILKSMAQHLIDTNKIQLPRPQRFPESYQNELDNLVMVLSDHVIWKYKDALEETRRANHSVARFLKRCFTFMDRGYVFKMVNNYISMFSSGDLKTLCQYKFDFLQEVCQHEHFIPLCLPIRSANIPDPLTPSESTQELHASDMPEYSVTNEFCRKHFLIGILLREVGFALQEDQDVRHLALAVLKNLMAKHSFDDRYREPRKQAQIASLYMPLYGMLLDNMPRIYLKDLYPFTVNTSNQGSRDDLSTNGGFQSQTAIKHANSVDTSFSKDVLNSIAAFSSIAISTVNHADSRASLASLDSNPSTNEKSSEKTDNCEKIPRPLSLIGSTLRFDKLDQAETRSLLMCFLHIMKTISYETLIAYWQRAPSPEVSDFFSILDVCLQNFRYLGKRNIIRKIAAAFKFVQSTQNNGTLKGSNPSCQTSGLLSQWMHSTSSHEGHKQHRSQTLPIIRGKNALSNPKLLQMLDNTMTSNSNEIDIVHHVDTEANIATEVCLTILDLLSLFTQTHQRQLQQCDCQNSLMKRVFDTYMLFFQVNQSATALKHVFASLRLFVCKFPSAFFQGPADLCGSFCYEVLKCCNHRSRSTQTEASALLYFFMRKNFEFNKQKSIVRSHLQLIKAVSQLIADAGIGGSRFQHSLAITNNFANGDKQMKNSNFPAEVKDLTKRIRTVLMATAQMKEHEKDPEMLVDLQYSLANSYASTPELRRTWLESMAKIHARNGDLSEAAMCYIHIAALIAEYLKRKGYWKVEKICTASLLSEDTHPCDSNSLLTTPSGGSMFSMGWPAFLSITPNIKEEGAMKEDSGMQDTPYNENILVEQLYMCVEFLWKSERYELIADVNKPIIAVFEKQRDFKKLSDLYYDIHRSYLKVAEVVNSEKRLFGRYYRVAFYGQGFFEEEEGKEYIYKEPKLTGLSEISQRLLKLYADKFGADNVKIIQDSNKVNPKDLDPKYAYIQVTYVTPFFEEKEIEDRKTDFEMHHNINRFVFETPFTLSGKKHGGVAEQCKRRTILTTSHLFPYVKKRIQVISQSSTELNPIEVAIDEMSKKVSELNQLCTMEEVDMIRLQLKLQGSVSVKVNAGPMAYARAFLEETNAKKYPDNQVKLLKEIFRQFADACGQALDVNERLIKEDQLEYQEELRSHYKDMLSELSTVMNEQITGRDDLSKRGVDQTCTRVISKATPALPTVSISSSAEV
UniProt P63027: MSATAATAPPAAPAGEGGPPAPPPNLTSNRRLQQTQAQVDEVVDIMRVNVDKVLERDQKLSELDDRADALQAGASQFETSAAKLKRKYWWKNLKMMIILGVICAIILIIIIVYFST
UniProt P48059: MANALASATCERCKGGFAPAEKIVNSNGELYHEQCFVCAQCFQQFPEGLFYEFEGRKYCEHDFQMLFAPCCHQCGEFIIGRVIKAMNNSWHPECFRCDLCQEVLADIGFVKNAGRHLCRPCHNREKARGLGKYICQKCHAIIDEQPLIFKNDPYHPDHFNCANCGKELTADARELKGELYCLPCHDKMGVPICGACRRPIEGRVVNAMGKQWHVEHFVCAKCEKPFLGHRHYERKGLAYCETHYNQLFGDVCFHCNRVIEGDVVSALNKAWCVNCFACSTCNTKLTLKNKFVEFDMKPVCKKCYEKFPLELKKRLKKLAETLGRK

B1: MAP7 domain-containing protein 3 (protein, UniProt Q8IWC1 1-876)
chain: MMADGAAAGAGGSPSLRELRARMVAAANEIAKERRKQDVVNRVATHSSNIRSTFKPVIDGSMLKNDIKQRLARERREEKRRQQDANKETQLLEKERKTKLQYEKQMEERQRKLKERKEKEEQRRIAAEEKRHQKDEAQKEKFTAILYRTLERRRLADDYQQKRWSWGGSAMANSESKTANKRSASTEKLEQGTSALIRQMPLSSAGLQNSVAKRKTDKERSSSLNRRDSNLHSSTDKEQAERKPRVTGVTNYVMQYVTVPLRKCTSDELRAVMFPMSTMKIPPQTKVEESPLEKVETPPKASVDAPPQVNVEVFCNTSMEASPKAGVGMAPEVSTDSFPVVSVDVSPVVSTYDSEMSMDASPELSIEALPKVDLETVPKVSIVASPEASLEAPPEVSLEALPEVSVEAAPEGSLEAPPKGSAEVAPKESVKGSPKESMEASPEAMVKASPKTSLEASMEASPKAKARDAPKKSEMDKQALIPIAKKRLSSYTECYKWSSSPENACGLPSPISTNRQIQKNCPPSPLPLISKQSPQTSFPYKIMPIQHTLSVQSASSTVKKKKETVSKTTNRCEALSQRHMIYEESGNKSTAGIMNAEAATKILTELRRLAREQREKEEEERQREEMQQRVIKKSKDMAKEAVGGQAEDHLKLKDGQQQNETKKKKGWLDQEDQEAPLQKGDAKIKAQEEADKRKKEHERIMLQNLQERLERKKRIEEIMKRTRKTDVNASKVTETSSHDIYEEAEADNEESDKDSLNEMFPSAILNGTGSPTKFKMPFNNAKKMTHKLVFLEDGTSQVRKEPKTYFNGDLKNFRQKSMKDTSIQEVVSRPSSKRMTSHTTKTRKADETNTTSRSSAQTKSEGFHDILPKSSDTFRQ
B2: Latrophilin-1 (protein, UniProt O94910 25-1474)
chain: LSRAGLPFGLMRRELACEGYPIELRCPGSDVIMVENANYGRTDDKICDADPFQMENVQCYLPDAFKIMSQRCNNRTQCVVVAGSDAFPDPCPGTYKYLEVQYDCVPYKVEQKVFVCPGTLQKVLEPTSTHESEHQSGAWCKDPLQAGDRIYVMPWIPYRTDTLTEYASWEDYVAARHTTTYRLPNRVDGTGFVVYDGAVFYNKERTRNIVKYDLRTRIKSGETVINTANYHDTSPYRWGGKTDIDLAVDENGLWVIYATEGNNGRLVVSQLNPYTLRFEGTWETGYDKRSASNAFMVCGVLYVLRSVYVDDDSEAAGNRVDYAFNTNANREEPVSLTFPNPYQFISSVDYNPRDNQLYVWNNYFVVRYSLEFGPPDPSAGPATSPPLSTTTTARPTPLTSTASPAATTPLRRAPLTTHPVGAINQLGPDLPPATAPVPSTRRPPAPNLHVSPELFCEPREVRRVQWPATQQGMLVERPCPKGTRGIASFQCLPALGLWNPRGPDLSNCTSPWVNQVAQKIKSGENAANIASELARHTRGSIYAGDVSSSVKLMEQLLDILDAQLQALRPIERESAGKNYNKMHKRERTCKDYIKAVVETVDNLLRPEALESWKDMNATEQVHTATMLLDVLEEGAFLLADNVREPARFLAAKENVVLEVTVLNTEGQVQELVFPQEEYPRKNSIQLSAKTIKQNSRNGVVKVVFILYNNLGLFLSTENATVKLAGEAGPGGPGGASLVVNSQVIAASINKESSRVFLMDPVIFTVAHLEDKNHFNANCSFWNYSERSMLGYWSTQGCRLVESNKTHTTCACSHLTNFAVLMAHREIYQGRINELLLSVITWVGIVISLVCLAICISTFCFLRGLQTDRNTIHKNLCINLFLAELLFLVGIDKTQYEIACPIFAGLLHYFFLAAFSWLCLEGVHLYLLLVEVFESEYSRTKYYYLGGYCFPALVVGIAAAIDYRSYGTEKACWLRVDNYFIWSFIGPVSFVIVVNLVFLMVTLHKMIRSSSVLKPDSSRLDNIKSWALGAIALLFLLGLTWAFGLLFINKESVVMAYLFTTFNAFQGVFIFVFHCALQKKVHKEYSKCLRHSYCCIRSPPGGTHGSLKTSAMRSNTRYYTGTQSRIRRMWNDTVRKQTESSFMAGDINSTPTLNRGTMGNHLLTNPVLQPRGGTSPYNTLIAESVGFNPSSPPVFNSPGSYREPKHPLGGREACGMDTLPLNGNFNNSYSLRSGDFPPGDGGPEPPRGRNLADAAAFEKMIISELVHNNLRGSSSAAKGPPPPEPPVPPVPGGGGEEEAGGPGGADRAEIELLYKALEEPLLLPRAQSVLYQSDLDESESCTAEDGATSRPLSSPPGRDSLYASGANLRDSPSYPDSSPEGPSEALPPPPPAPPGPPEIYYTSRPPALVARNPLQGYYQVRRPSHEGYLAAPGLEGPGPDGDGQMQLVTSL
B3: Myosin regulatory light chain 12A (protein, UniProt P19105 1-171)
chain: MSSKRTKTKTKKRPQRATSNVFAMFDQSQIQEFKEAFNMIDQNRDGFIDKEDLHDMLASLGKNPTDEYLDAMMNEAPGPINFTMFLTMFGEKLNGTDPEDVIRNAFACFDEEATGTIQEDYLRELLTTMGDRFTDEEVDELYREAPIDKKGNFNYIEFTRILKHGAKDKDD
B4: FAM115C (protein, UniProt A6NFQ2 1-919)
chain: MATIAAAAFEALMDGVTCWDVPRGPIPSELLLIGEAAFPVMVNDKGQVLIAASSYGRGRLVVVSHEGYLSHTGLAPFLLNAVSWLCPCPGAPVGVHPSLAPLVNILQDAGLEAQVKPEPGEPLGVYCINAYNDTLTATLIQFVKHGGGLLIGGQAWYWASQHGPDKVLSRFPGNKVTSVAGVYFTDTYGDRDRFKVSKKVPKIPLHVRYGEDVRQDQQQLLEGISELDIRTGGVPSQLLVHGALAFPLGLDASLNCFLAAAHYGRGRVVLAAHECLLCAPKMGPFLLNAVRWLARGQTGKVGVNTNLKDLCPLLSEHGLQCSLEPHLNSDLCVYCCKAYSDKEAKQLQEFVAEGGGLLIGGQAWWWASQNPGHCPLAGFPGNIILNCFGLSILPQTLKAGCFPVPTPEMRSYHFRKALSQFQAILNHENGNLEKSCLAKLRVDGAAFLQIPAEGVPAYISLHRLLRKMLRGSGLPAVSRENPVASDSYEAAVLSLATGLAHSGTDCSQLAQGLGTWTCSSSLYPSKHPITVEINGINPGNNDCWVSTGLYLLEGQNAEVSLSEAAASAGLRVQIGCHTDDLTKARKLSRAPVVTHQCWMDRTERSVSCLWGGLLYVIVPKGSQLGPVPVTIRGAVPAPYYKLGKTSLEEWKRQMQENLAPWGELATDNIILTVPTTNLQALKDPEPVLRLWDEMMQAVARLAAEPFPFRRPERIVADVQISAGWMHSGYPIMCHLESVKEIINEMDMRSRGVWGPIHELGHNQQRHGWEFPPHTTEATCNLWSVYVHETVLGIPRAQAHEALSPPERERRIKAHLGKGAPLCDWNVWTALETYLQLQEAFGWEPFTQLFAEYQTLSHLPKDNTGRMNLWVKKFSEKVKKNLVPFFEAWGWPIQKEVADSLASLPEWQENPMQVYLRARK
B5: BAI1-associated protein3 (BAP3) (protein, UniProt O94812 1-1187)
chain: MRPRGAAFAAGPPGDLHLGTAIGFAGAIWRSRSPAMSTLLDIKSSVLRQVQVCPSFRRRTEQDPGSASADPQEPATGAWKPGDGVEFFAHMRLMLKKGEGRQGLPCLEVPLRSGSPAPPEPVDPSLGLRALAPEEVEMLYEEALYTVLYRAGTMGPDQVDDEEALLSYLQQVFGTSLEEHTEAIERVRKAKAPTYALKVSVMRAKNLLAKDPNGFSDPYCMLGILPASDATREPRAQKEQRFGFRKGSKRGGPLPAKCIQVTEVKSSTLNPVWKEHFLFEIEDVSTDQLHLDIWDHDDDVSLVEACRKLNEVIGLKGMGRYFKQIVKSARANGTAGPTEDHTDDFLGCLNIPVREVPVAGVDRWFKLEPRSSASRVQGHCHLVLKLITTQRDTAMSQRGRSGFLSHLLLLSHLLRLEHSAEEPNSSSWRGELSTPAATILCLHGAQSNLSPLQLAVLHWQVSSRHHQTCTLDYSYLLGLLEDMQAHWEEAPSLPQEQEESLADSLSAFSEFGLQLLRQLRDYFPATNSTAVHRLELLLKCLGKLQLFQPSFEICPFESELNMDIAAALKRGNREWYDRILNDKSPREQPGPQRLPGLVVLADAVYDDLQFCYSVYASLFHSILNVDVFTLTFRQLERLVAEEAWVLTEELSPKMTLEVASGLFELYLTLADLQRFWDSIPGRDSRSLALAGIHAPFLPAVKLWFQVLRDQAKWRLQGAVDMDTLEPVDASSRHSSSAATAGLCLSHIQELWVRLAWPDPAQAQGLGTQLGQDVCEATLFYTELLRKKVDTQPGAAGEAVSEALCVVLNNVELVRKAAGQALKGLAWPEGATGPEGVLPRPLLSCTQALDDDLQREAHTVTAHLTSKMVGDIRKYVQHISLSPDSIQNDEAVAPLMKYLDEKLALLNASLVKGNLSRVLEALWELLLQAILQALGANRDVSADFYSRFHFTLEALVSFFHAEGQGLPLESLRDGSYKRLKEELRLHKCSTRECIEQFYLDKLKQRTLEQNRFGRLSVRCHYEAAEQRLAVEVLHAADLLPLDANGLSDPFVIVELGPPHLFPLVRSQRTQVKTRTLHPVYDELFYFSVPAEACRRRAACVLFTVMDHDWLSTNDFAGEAALGLGGVTGVARPQVGGGARAGQPVTLHLCRPRAQVRSALRRLEGRTSKEAQEFVKKLKELEKCMEADP
B6: BET1 homolog (protein, UniProt O15155 1-118)
chain: MRRAGLGEGVPPGNYGNYGYANSGYSACEEENERLTESLRSKVTAIKSLSIEIGHEVKTQNKLLAEMDSQFDSTTGFLGKTMGKLKILSRGSQTKLLCYMMLFSLFVFFIIYWIIKLR
B7: FAM65C (protein, UniProt Q96MK2 1-946)
chain: MSVRLRFLSPGDTGAVGVVGRSASFAGFSSAQSRRIAKSINRNSVRSRMPAKSSKMYGTLRKGSVCADPKPQQVKKIFEALKRGLKEYLCVQQAELDHLSGRHKDTRRNSRLAFYYDLDKQTRCVERHIRKMEFHISKVDELYEDYCIQCRLRDGASSMQRAFARCPPSRAARESLQELGRSLHECAEDMWLIEGALEVHLGEFHIRMKGLVGYARLCPGDHYEVLMRLGRQRWKLKGRIESDDSQTWDEEEKAFIPTLHENLDIKVTELRGLGSLAVGAVTCDIADFFTTRPQVIVVDITELGTIKLQLEVQWNPFDTESFLVSPSPTGKFSMGSRKGSLYNWTPPSTPSFRERYYLSVLQQPTQQALLLGGPRATSILSYLSDSDLRGPSLRSQSQELPEMDSFSSEDPRDTETSTSASTSDVGFLPLTFGPHASIEEEAREDPLPPGLLPEMAHLSGGPFAEQPGWRNLGGESPSLPQGSLFHSGTASSSQNGHEEGATGDREDGPGVALEGPLQEVLELLRPTDSTQPQLRELEYQVLGFRDRLKPCRARQEHTSAESLMECILESFAFLNADFALDELSLFGGSQGLRKDRPLPPPSSLKASSRELTAGAPELDVLLMVHLQVCKALLQKLASPNLSRLVQECLLEEVAQQKHVLETLSVLDFEKVGKATSIEEIIPQASRTKGCLKLWRGCTGPGRVLSCPATTLLNQLKKTFQHRVRGKYPGQLEIACRRLLEQVVSCGGLLPGAGLPEEQIITWFQFHSYLQRQSVSDLEKHFTQLTKEVTLIEELHCAGQAKVVRKLQGKRLGQLQPLPQTLRAWALLQLDGTPRVCRAASARLAGAVRNRSFREKALLFYTNALAENDARLQQAACLALKHLKGIESIDQTASLCQSDLEAVRAAARETTLSFGEKGRLAFEKMDKLCSEQREVFCQEADVEITIF

Each molecule was assayed against GST-RhoG fusion protein (UniProt P84095) (assay: affinity purification with mass spectrometry; GTPγS-loaded (100 uM) GST-RhoG-Sepharose beads rotated with washed human platelet lysates (500 ul, 5 x 10^8/ml) for 1 h at 4 °C; bound proteins eluted in Laemmli buffer, SDS-PAGE, in-gel tryptic digestion, LTQ Orbitrap Velos; three donors; only the target purified).

| binding | Molecule |
| --- | --- |
| binds | KIF14 (from UniProt Q15058 1-1648) |
| binds | Kinesin-associated protein 3 (from UniProt Q92845 1-792) |
| binds | TTC7B protein (from UniProt Q86TV6 1-843) |
| binds | DOCK10 (from UniProt Q96BY6 1-2186) |
| binds | DOCK1 (DOCK180) (from UniProt Q14185 1-1865) |
| binds | Vesicle-associated membrane protein 2 (from UniProt P63027 1-116) |
| binds | LIMS1 (from UniProt P48059 1-325) |
| binds | B1 |
| binds | B2 |
| binds | B3 |
| binds | B4 |
| binds | B5 |
| binds | B6 |
| binds | B7 |
